{"source": "ChEMBL document CHEMBL1156417", "about": "“Transferable resistance to aminoglycosides by methylation of G1405 in 16S rRNA and to hydrophilic fluoroquinolones by QepA-mediated efflux in Escherichia coli” (2007)", "type_in_all_cases": "functional", "key": {"Escherichia coli [1]": {"test_system": "Escherichia coli", "assay": "Antibacterial activity against Escherichia coli C600Rif in presence of 40 ug/ml efflux pump inhibitor 1-(1-naphthylmethyl)-piperazine by Etest"}, "Escherichia coli [2]": {"test_system": "Escherichia coli", "assay": "Antibacterial activity against Escherichia coli TOP10 in presence of 40 ug/ml efflux pump inhibitor 1-(1-naphthylmethyl)-piperazine by Etest"}, "Escherichia coli [3]": {"test_system": "Escherichia coli", "assay": "Antibacterial activity against Escherichia coli TOP10 containing pIP1206 plasmid in presence of 40 ug/ml efflux pump inhibitor 1-(1-naphthylmethyl)-piperazine by Etest"}, "Escherichia coli [4]": {"test_system": "Escherichia coli", "assay": "Antibacterial activity against Escherichia coli TOP10 containing pIP1206 plasmid in presence of 50 ug/ml efflux pump inhibitor phenyl-arginine-beta-naphthylamide by Etest"}, "Escherichia coli [5]": {"test_system": "Escherichia coli", "assay": "Antibacterial activity against Escherichia coli C600Rif containing pIP1206 plasmid in presence of 50 ug/ml efflux pump inhibitor phenyl-arginine-beta-naphthylamide by Etest"}, "Escherichia coli [6]": {"test_system": "Escherichia coli", "assay": "Antibacterial activity against Escherichia coli TOP10 containing pAT851 in presence of 50 ug/ml efflux pump inhibitor phenyl-arginine-beta-naphthylamide by Etest"}, "Escherichia coli [7]": {"test_system": "Escherichia coli", "assay": "microbe, parasite or virus in culture"}, "Escherichia coli [8]": {"test_system": "Escherichia coli", "assay": "Antibacterial activity against Escherichia coli TOP10 containing pAT851 in presence of 40 ug/ml efflux pump inhibitor 1-(1-naphthylmethyl)-piperazine by Etest"}, "Escherichia coli [9]": {"test_system": "Escherichia coli", "assay": "Antibacterial activity against Escherichia coli C600Rif in presence of 50 ug/ml efflux pump inhibitor phenyl-arginine-beta-naphthylamide by Etest"}, "Escherichia coli [10]": {"test_system": "Escherichia coli", "assay": "Antibacterial activity against Escherichia coli TOP10 in presence of 50 ug/ml efflux pump inhibitor phenyl-arginine-beta-naphthylamide by Etest"}}, "data": [{"smiles": "CCn1cc(C(=O)O)c(=O)c2cc(F)c(N3CCN(C)CC3)cc21", "note": "[PEFLOXACIN]", "values": [{"measurement": "MIC", "setting": "Escherichia coli [1]", "value": 0.064, "unit": "µg/mL"}, {"measurement": "MIC", "setting": "Escherichia coli [2]", "value": 0.016, "unit": "µg/mL"}, {"measurement": "MIC", "setting": "Escherichia coli [3]", "value": 0.016, "unit": "µg/mL"}, {"measurement": "MIC", "setting": "Escherichia coli [4]", "value": 0.016, "unit": "µg/mL"}, {"measurement": "MIC", "setting": "Escherichia coli [5]", "value": 0.032, "unit": "µg/mL"}, {"measurement": "MIC", "setting": "Escherichia coli [6]", "value": 0.016, "unit": "µg/mL"}, {"measurement": "MIC", "setting": "Escherichia coli [7]", "value": 0.064, "unit": "µg/mL"}, {"measurement": "MIC", "setting": "Escherichia coli [8]", "value": 0.016, "unit": "µg/mL"}, {"measurement": "MIC", "setting": "Escherichia coli [9]", "value": 0.047, "unit": "µg/mL"}, {"measurement": "MIC", "setting": "Escherichia coli [10]", "value": 0.016, "unit": "µg/mL"}]}]}
